# Results deposited as PubChem BioAssay AID1259308 (NCATS, 2017).
# Aim: 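Genes whose loss raises luciferase production in HEK293 cells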 (primary screen)
# Cell system: human HEK293 embryonic kidney cells stably expressing firefly luciferase (HEK-CMV-Luc2-Hygro)
# Reagents: single siRNA against human genes, 0.8 pmol siRNA per well
# Duration: 72 h
# Measured: 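Luciferase light (ONE-Glo) measured on one replicate plate set and viability (CellTiter-Glo) on the other, scaled to a negative control siRNA, with robust z-scores and luciferase per cell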
# Reading the numbers: total luciferase, z-score and total luciferase, % of control: higher = more reporter protein produced; luciferase per cell, z-score: higher = more reporter output per viable cell; viable cells, % of control: higher = more viable cells
# Rule for the call: 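An siRNA counts as active if its total luciferase robust z-score exceeds 3; genes with two or more such siRNAs out of three were retested with fresh siRNAs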
# Calls: active = raised luciferase; inactive = no rise
# Shown is an unselected part of about 59,000 deposited reagents. About 1,510 of all reagents (2.6%) were called active. 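Calls use total luciferase alone and ignore viability, so some active siRNAs may act by altering cell number.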 Reagents against one gene are numbered here.
gene symbol,reagent,"total luciferase, z-score","total luciferase, % of control","luciferase per cell, z-score","viable cells, % of control",activity call
PLEKHG3,1,1.93,120,2.12,76.8,inactive
PLEKHG3,2,-0.423,73.5,-0.0897,84.1,inactive
PLEKHG3,3,0.855,98.9,1.19,80.7,inactive
TIMP1,1,1.37,109,1.23,88.1,inactive
TIMP1,2,-0.404,73.9,0.0668,81.1,inactive
TIMP1,3,0.136,84.6,-0.339,103,inactive
TMPO,1,-1.68,48.4,-2.27,98.3,inactive
TMPO,2,-0.144,79,-0.602,103,inactive
TMPO,3,-0.323,75.5,-0.815,105,inactive
RPN2,1,1.53,112,1.02,96.1,inactive
RPN2,2,-1.7,48.1,-1.15,72.8,inactive
RPN2,3,-2.05,41.1,-2.36,85.6,inactive
UPF3B,1,-0.391,74.1,-0.88,104,inactive
UPF3B,2,-0.377,74.4,-0.843,104,inactive
UPF3B,3,0.143,84.7,-0.59,111,inactive
PROZ,1,1.48,111,0.781,101,inactive
PROZ,2,1.07,103,0.682,96.4,inactive
PROZ,3,2.06,123,1.72,87.2,inactive
CYP19A1,1,0.0426,82.7,0.38,83.7,inactive
CYP19A1,2,-0.753,66.9,-0.631,88.3,inactive
CYP19A1,3,2.17,125,1.46,95.2,inactive
KCNT2,1,0.123,84.3,0.192,89.6,inactive
KCNT2,2,-0.453,72.9,-0.368,89.7,inactive
KCNT2,3,-2.71,28,-3.54,79.5,inactive
CCDC27,1,-0.388,74.2,0.522,72.2,inactive
CCDC27,2,0.143,84.7,0.0287,94,inactive
CCDC27,3,-0.131,79.3,1.12,66,inactive
REXO1L8P,1,0.295,87.8,-0.171,103,inactive
REXO1L8P,2,-0.144,79,3.89,31.7,inactive
REXO1L8P,3,-1.42,53.6,-0.923,76.4,inactive
REEP3,1,0.46,91,0.478,89.7,inactive
REEP3,2,-0.216,77.6,-0.0682,88.3,inactive
REEP3,3,0.236,86.6,-0.406,108,inactive
C10orf55,1,-1.46,52.8,-0.149,61.4,inactive
C10orf55,2,-0.611,69.7,0.17,74.5,inactive
C10orf55,3,-0.518,71.6,-0.204,84.4,inactive
IPO13,1,-0.366,74.6,-0.669,99.4,inactive
IPO13,2,-0.314,75.6,-0.424,94.5,inactive
IPO13,3,0.288,87.6,-0.29,106,inactive

Not a retest: 2 of the entries above.
gene symbol,reagent,"total luciferase, z-score","total luciferase, % of control","luciferase per cell, z-score","viable cells, % of control",activity call
REXO1L8P,3,-1.42,53.6,-0.923,76.4,inactive
REEP3,1,0.46,91,0.478,89.7,inactive
